# Source: the supplement of paper PMC8728848
# Some of the results follow.
# B1: SspB A3vp1 (Streptococcus gordonii), Q54186 (protein)
# chain: MTNEADYQAKLAAYQTELARVQKANADAKATYEKAVEDNKAKNAAIKAENEEIKQRNAVAKTDYEAKLAKYEADLAKYKKEFAAYTAALAEAESKKKQDGYLSEPRSQSLNFKSEPNAIRTIDSSVHQYGQQELDALVKSWGISPTNPDRKKSRAYSYFNAINSNNTYAKLVLEKDKPVDVTYTGLKNSSFNGKKISKVVYTYTLKETGFNDGTKMTMFASSDPTVTAWYNDYFTSTNINVKVKFYDEEGQLMNLTGGLVNFSSLNRGNGSGAIDKDAIESVRNFNGRYIPISGSSIKIHENNSAYADSSNAEKSLGARWNTSEWDTTSSPNNWYGAIVGEITQSEISFNMASSKSGNIWFAFNSNINAIGVPTKPVAPTAPTQPMYETEKPLEPAPVAPSYENEPTPPVKTPDQPEPSKPAAALEHHHHHH
# Assays:
# Experiment in all cases: glycan array binding signal (z-score within array); higher = stronger binding
# Details in all cases: glycan notation: IUPAC condensed, linker removed
# [1] = molecular target: Fuc(a1-3)[Gal(b1-4)]GlcNAc(b1-3)Gal(b1-4)[Fuc(a1-3)]GlcNAc
# Outline: (§1)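 Glycan array data came from 3228 arrays in the Consortium for Functional Glycomics database, and only arrays with an available protein sequence were kept. Glycan names were put into IUPAC-condensed notation, and columns mapping to the same glycan were averaged. The binding signal is a within-array Z-score, averaged across arrays of one protein sequence run at different concentrations or buffers and across linkers. A negative Z-score can be read as non-binding.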
# [2] = molecular target: Fuc(a1-3)[Gal(b1-4)]GlcNAc(b1-3)Gal(b1-4)[Fuc(a1-3)]GlcNAc(b1-3)Gal(b1-4)[Fuc(a1-3)]GlcNAc
# Outline: as §1
# [3] = molecular target: Fuc(a1-3)[Gal(b1-4)]GlcNAc(b1-3)GalNAc
# Outline: as §1
# [4] = molecular target: Fuc(a1-3)[Gal(b1-4)]GlcNAc(b1-6)GalNAc
# Outline: as §1
# [5] = molecular target: Fuc(a1-3)[Gal(b1-4)]GlcNAc(b1-6)[Gal(b1-3)GlcNAc(b1-3)]Gal(b1-4)Glc
# Outline: as §1
# [6] = molecular target: Fuc(a1-3)[Gal(b1-4)]GlcNAc6S
# Outline: as §1
# [7] = molecular target: Fuc(a1-3)[Gal3S(b1-4)]Glc
# Outline: as §1
# [8] = molecular target: Fuc(a1-3)[Gal3S(b1-4)]GlcNAc
# Outline: as §1
# [9] = molecular target: Fuc(a1-3)[Gal3S(b1-4)]GlcNAc6S
# Outline: as §1
# [10] = molecular target: Fuc(a1-3)[GalNAc(b1-4)]GlcNAc
# Outline: as §1
# [11] = molecular target: Fuc(a1-3)[GalNAc(b1-4)]GlcNAc6S
# Outline: as §1
# [12] = molecular target: Fuc(a1-4)GlcNAc
# Outline: as §1
# [13] = molecular target: Fuc(b1-3)GlcNAc
# Outline: as §1
# [14] = molecular target: Gal(a1-2)Gal
# Outline: as §1
# [15] = molecular target: Gal(a1-3)Gal
# Outline: as §1
# [16] = molecular target: Gal(a1-3)Gal(b1-3)GlcNAc
# Outline: as §1
# [17] = molecular target: Gal(a1-3)Gal(b1-3)GlcNAc(b1-2)Man
# Outline: as §1
# [18] = molecular target: Gal(a1-3)Gal(b1-3)GlcNAc(b1-2)Man(a1-3)[Gal(a1-3)Gal(b1-3)GlcNAc(b1-2)Man(a1-6)]Man(b1-4)GlcNAc(b1-4)GlcNAc
# Outline: as §1
# [19] = molecular target: Gal(a1-3)Gal(b1-3)GlcNAc(b1-3)GalNAc
# Outline: as §1
# [20] = molecular target: Gal(a1-3)Gal(b1-3)GlcNAc(b1-6)GalNAc
# Outline: as §1
# [21] = molecular target: Gal(a1-3)Gal(b1-3)[Fuc(a1-4)]GlcNAc(b1-2)Man(a1-3)[Gal(a1-3)Gal(b1-3)[Fuc(a1-4)]GlcNAc(b1-2)Man(a1-6)]Man(b1-4)GlcNAc(b1-4)GlcNAc
# Outline: as §1
# [22] = molecular target: Gal(a1-3)Gal(b1-4)Glc
# Outline: as §1
# [23] = molecular target: Gal(a1-3)Gal(b1-4)GlcNAc
# Outline: as §1
# [24] = molecular target: Gal(a1-3)Gal(b1-4)GlcNAc(b1-2)Man
# Outline: as §1
# [25] = molecular target: Gal(a1-3)Gal(b1-4)GlcNAc(b1-2)Man(a1-3)[Gal(a1-3)Gal(b1-4)GlcNAc(b1-2)Man(a1-6)]Man(b1-4)GlcNAc(b1-4)GlcNAc
# Outline: as §1
# [26] = molecular target: Gal(a1-3)Gal(b1-4)GlcNAc(b1-3)GalNAc
# Outline: as §1
# [27] = molecular target: Gal(a1-3)Gal(b1-4)GlcNAc(b1-6)GalNAc
# Outline: as §1
# [28] = molecular target: Gal(a1-3)Gal(b1-4)[Fuc(a1-3)]GlcNAc
# Outline: as §1
# [29] = molecular target: Gal(a1-3)Gal(b1-4)[Fuc(a1-3)]GlcNAc(b1-2)Man(a1-3)[Gal(a1-3)Gal(b1-4)[Fuc(a1-3)]GlcNAc(b1-2)Man(a1-6)]Man(b1-4)GlcNAc(b1-4)GlcNAc
# Outline: as §1
# [30] = molecular target: Gal(a1-3)GalNAc
# Outline: as §1
# [31] = molecular target: Gal(a1-3)[Gal(a1-4)]Gal(b1-4)GlcNAc
# Outline: as §1
# [32] = molecular target: Gal(a1-4)Gal(b1-3)GlcNAc(b1-2)Man(a1-3)[Gal(a1-4)Gal(b1-3)GlcNAc(b1-2)Man(a1-6)]Man(b1-4)GlcNAc(b1-4)GlcNAc
# Outline: as §1
# [33] = molecular target: Gal(a1-4)Gal(b1-4)Glc
# Outline: as §1
# [34] = molecular target: Gal(a1-4)Gal(b1-4)GlcNAc
# Outline: as §1
# [35] = molecular target: Gal(a1-4)Gal(b1-4)GlcNAc(b1-2)Man(a1-3)[Gal(a1-4)Gal(b1-4)GlcNAc(b1-2)Man(a1-6)]Man(b1-4)GlcNAc(b1-4)GlcNAc
# Outline: as §1
# [36] = molecular target: Gal(a1-4)Gal(b1-4)GlcNAc(b1-3)Gal(b1-4)Glc
# Outline: as §1
# [37] = molecular target: Gal(a1-4)GlcNAc
# Outline: as §1
# [38] = molecular target: Gal(a1-6)Glc
# Outline: as §1
binder,measurement,setting,value
B1,glycan array binding signal (z-score),[1],-0.029
same,glycan array binding signal (z-score),[2],-0.599
same,glycan array binding signal (z-score),[3],-0.081
same,glycan array binding signal (z-score),[4],0.565
same,glycan array binding signal (z-score),[5],-0.012
same,glycan array binding signal (z-score),[6],1.01
same,glycan array binding signal (z-score),[7],-0.203
same,glycan array binding signal (z-score),[8],0.069
same,glycan array binding signal (z-score),[9],0.353
same,glycan array binding signal (z-score),[10],0.403
same,glycan array binding signal (z-score),[11],0.709
same,glycan array binding signal (z-score),[12],-0.649
same,glycan array binding signal (z-score),[13],-0.373
same,glycan array binding signal (z-score),[14],-0.244
same,glycan array binding signal (z-score),[15],-0.056
same,glycan array binding signal (z-score),[16],0.073
same,glycan array binding signal (z-score),[17],0.418
same,glycan array binding signal (z-score),[18],1.68
same,glycan array binding signal (z-score),[19],-1.05
same,glycan array binding signal (z-score),[20],0.724
same,glycan array binding signal (z-score),[21],1.04
same,glycan array binding signal (z-score),[22],-0.203
same,glycan array binding signal (z-score),[23],-0.563
same,glycan array binding signal (z-score),[24],-0.441
same,glycan array binding signal (z-score),[25],1.84
same,glycan array binding signal (z-score),[26],-0.466
same,glycan array binding signal (z-score),[27],-0.506
same,glycan array binding signal (z-score),[28],-0.242
same,glycan array binding signal (z-score),[29],1.43
same,glycan array binding signal (z-score),[30],-0.575
same,glycan array binding signal (z-score),[31],0.649
same,glycan array binding signal (z-score),[32],1.38
same,glycan array binding signal (z-score),[33],-0.053
same,glycan array binding signal (z-score),[34],0.692
same,glycan array binding signal (z-score),[35],1.45
same,glycan array binding signal (z-score),[36],-0.588
same,glycan array binding signal (z-score),[37],-0.706
same,glycan array binding signal (z-score),[38],-0.898

# At a glance, part of the list above:
binder,measurement,setting,value
B1,glycan array binding signal (z-score),[23],-0.563
same,glycan array binding signal (z-score),[24],-0.441
